In the data set the test system is human Ku70 WT + human Ku80 WT. Briefly: EMSA. The following applies: 1 nM Ku, 1 nM DNA, 15 min, deoxyuridine at position 2 of strand 1 (no UDG treatment for EMSA), 5' phosphate on strand 1, 5' biotin-TEG on strand 2, EMSA: 1 nM Ku with 1 nM radiolabeled 30 bp DNA, no streptavidin/UDG, recombinant protein, protein details: C-terminal His6, label: 3' 32P-cordycepin on strand 1. A general note: In EMSA bound probe runs differently from free probe, usually more slowly.

Chains of the proteins cited; added tags and fusions are not shown. A line that says so, or that is headed by a name, gives the form on record, which may keep a tag or linker.
human Ku70 WT + human Ku80 WT, one chain, as listed by the source, chain 2 of 2: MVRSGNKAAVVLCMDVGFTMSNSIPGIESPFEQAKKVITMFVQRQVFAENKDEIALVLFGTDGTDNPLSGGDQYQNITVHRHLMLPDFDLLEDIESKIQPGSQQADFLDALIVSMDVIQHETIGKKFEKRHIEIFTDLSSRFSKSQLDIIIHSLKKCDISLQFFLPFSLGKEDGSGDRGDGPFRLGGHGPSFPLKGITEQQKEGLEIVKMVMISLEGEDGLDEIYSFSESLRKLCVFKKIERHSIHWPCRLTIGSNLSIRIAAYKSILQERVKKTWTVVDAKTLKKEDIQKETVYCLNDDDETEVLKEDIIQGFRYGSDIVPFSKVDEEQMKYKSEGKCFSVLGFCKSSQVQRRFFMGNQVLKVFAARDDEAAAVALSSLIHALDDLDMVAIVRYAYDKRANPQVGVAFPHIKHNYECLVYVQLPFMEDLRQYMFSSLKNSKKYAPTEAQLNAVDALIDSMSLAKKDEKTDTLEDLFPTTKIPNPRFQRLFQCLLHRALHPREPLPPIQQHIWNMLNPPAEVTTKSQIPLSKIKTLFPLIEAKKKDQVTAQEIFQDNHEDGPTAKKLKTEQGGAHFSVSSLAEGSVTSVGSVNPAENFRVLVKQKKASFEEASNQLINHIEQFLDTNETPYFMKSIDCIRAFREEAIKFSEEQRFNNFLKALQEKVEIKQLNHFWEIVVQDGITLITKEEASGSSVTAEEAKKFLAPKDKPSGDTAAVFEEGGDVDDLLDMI
human Ku70 WT + human Ku80 WT, one chain, as listed by the source, chain 1 of 2: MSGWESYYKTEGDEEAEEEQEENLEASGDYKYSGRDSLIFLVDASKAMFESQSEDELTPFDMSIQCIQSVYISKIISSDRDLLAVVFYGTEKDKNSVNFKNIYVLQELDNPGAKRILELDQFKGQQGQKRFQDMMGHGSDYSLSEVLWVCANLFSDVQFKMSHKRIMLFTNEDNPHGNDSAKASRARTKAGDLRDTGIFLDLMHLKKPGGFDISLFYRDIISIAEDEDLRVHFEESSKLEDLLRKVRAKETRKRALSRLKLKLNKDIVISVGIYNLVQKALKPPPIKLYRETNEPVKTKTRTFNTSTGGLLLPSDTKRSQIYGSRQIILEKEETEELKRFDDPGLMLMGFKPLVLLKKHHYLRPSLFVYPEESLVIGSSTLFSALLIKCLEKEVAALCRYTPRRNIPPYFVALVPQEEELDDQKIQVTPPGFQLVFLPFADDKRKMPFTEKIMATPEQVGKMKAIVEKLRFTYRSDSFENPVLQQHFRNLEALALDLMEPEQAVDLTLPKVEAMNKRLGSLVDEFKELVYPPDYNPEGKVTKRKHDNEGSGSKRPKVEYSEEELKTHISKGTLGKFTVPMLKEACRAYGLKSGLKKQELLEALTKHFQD

The exact form of at least one protein or probe is not confirmed. At least one verdict rests on a figure or table, not on a statement of the authors.

In the case of “GUGGAAATCAAACGTAAGTAGAATCCAAAGTCT / TAGACTTTGGATTCTACTTACGTTTGATTTC [30 bp EMSA substrate]”, the binding result was “binds”.
